# Measured values published in PubChem BioAssay AID504327 (National Center for Advancing Translational Sciences (NCATS), 2011).
# Protein sequences, listed by entry. Tags and fused reporters are not part of them.
# UniProt Q92830, whole entry, looked up: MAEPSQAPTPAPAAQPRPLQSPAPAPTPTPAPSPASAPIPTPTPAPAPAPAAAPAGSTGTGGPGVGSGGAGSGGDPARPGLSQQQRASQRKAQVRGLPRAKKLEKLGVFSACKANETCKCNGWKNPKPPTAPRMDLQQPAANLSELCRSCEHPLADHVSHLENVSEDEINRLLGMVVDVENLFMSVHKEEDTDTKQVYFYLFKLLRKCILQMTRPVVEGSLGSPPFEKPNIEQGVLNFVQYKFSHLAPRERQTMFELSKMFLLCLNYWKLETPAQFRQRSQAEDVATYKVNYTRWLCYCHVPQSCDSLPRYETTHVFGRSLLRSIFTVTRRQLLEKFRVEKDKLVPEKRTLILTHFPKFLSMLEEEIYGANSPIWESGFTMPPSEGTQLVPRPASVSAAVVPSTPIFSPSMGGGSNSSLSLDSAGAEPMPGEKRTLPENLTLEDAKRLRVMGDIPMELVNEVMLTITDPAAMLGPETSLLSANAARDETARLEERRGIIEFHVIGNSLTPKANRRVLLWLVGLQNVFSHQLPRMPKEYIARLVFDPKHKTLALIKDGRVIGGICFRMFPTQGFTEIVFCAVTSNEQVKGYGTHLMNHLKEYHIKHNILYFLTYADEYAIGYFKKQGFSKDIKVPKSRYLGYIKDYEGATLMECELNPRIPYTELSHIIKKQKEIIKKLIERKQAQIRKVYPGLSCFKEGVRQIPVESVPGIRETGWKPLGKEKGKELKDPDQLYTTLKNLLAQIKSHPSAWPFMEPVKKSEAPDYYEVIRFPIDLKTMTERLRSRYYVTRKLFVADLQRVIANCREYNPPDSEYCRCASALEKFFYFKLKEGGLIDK
# About 820 (0.21%) of roughly 390,000 compounds were called active. This list was built around the results that the source calls inconclusive (neither active nor inactive); the mix of calls is not that of the screen. Calls come from the whole dose curve; as a rule, active = well fitted inhibition curve with a large enough effect; inconclusive = small, poorly fitted or top-dose-only effect, or another doubt; inactive = no such curve, though single readings can be large or run the other way. A potency beside an inconclusive call is a rough fit, not a confirmed value.
# Target: Histone acetyltransferase KAT2A (Homo sapiens) (UniProt Q92830)
# Experiment: qHTS Assay for Inhibitors of GCN5L2
# Conditions: GCN5L2 HAT assay, ThioGlo1 CoA-SH fluorescence; activity change, negative = inhibition: at 58.9 µM (top of the series) unless noted
# Summary of the method: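 GCN5L2 (20 nM) in 50mM HEPES pH 7.5, 0.1mM EDTA, 0.01% Tween-20 preincubated 15 min with compounds at room temperature. Reaction started with H3(1-25) 75uM, acetyl-CoA 70uM, ThioGlo1 50uM; CoA-thiol fluorescence (Ex340/Em540) read at 0 and 20 min.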
# % is set by controls: 0 for no effect and ±100 for the full control effect; potency is the fitted concentration of half-maximal effect.
SMILES,Potency,"activity change, negative = inhibition"
Cc1ccc(-c2nc(N/N=C/c3cccc([N+](=O)[O-])c3)c3ccccc3n2)cc1,"inconclusive: 39.8 µM [inhibitor, single point]",
CCOC(=O)c1cc(-c2ccccc2)sc1N,inactive,
Cc1c(C(=O)OCC(=O)N(CC(C)C)c2c(N)n(Cc3ccccc3)c(=O)[nH]c2=O)oc2ccccc12,"inconclusive: 17.8 µM [inhibitor, partial curve]",
COc1ccc(-c2cnc(SCC(=O)Nc3ccc4c(c3)OCO4)n2Cc2ccco2)cc1,,inconclusive: -87.5% [inhibitor] [at 0.501 µM]
O=c1c2c(nc3n1CCCCC3)sc1c(O)cccc12,"inconclusive: 1 µM [inhibitor, full curve, poor fit]",
O=C(Nc1c(C(=O)N2CCN(c3ccc(F)cc3)CC2)oc2ccccc12)c1ccco1,"inconclusive: 22.4 µM [inhibitor, single point]",
Cc1ccc2c(c1)N(C(=O)CCC(=O)NCC(C)c1ccccc1)CC(C)O2 (stereo not given),"inconclusive: 0.631 µM [inhibitor, partial curve, poor fit]",
CCCn1c(SCC(=O)N(C)C2CCS(=O)(=O)C2)nc2sc3c(c2c1=O)CCC3 (stereo not given),inactive,
Cc1cccc(CCNC(=O)C2CCC(=O)N2Cc2ccc(F)cc2)c1 (stereo not given),"inconclusive: 39.8 µM [inhibitor, single point]",
COc1ccc(CCNc2nc(C)c(C(C)=O)s2)cc1OC,"inconclusive: 39.8 µM [inhibitor, single point]",
CC1=C(C)/C(=N\OS(=O)(=O)c2ccccc2)C=CC1=O,"inconclusive: 1.78 µM [inhibitor, partial curve]",
Cc1cccc(NC2=NCC(=O)N2CCc2ccccc2)c1,"inconclusive: 17.8 µM [inhibitor, partial curve, poor fit]",
O=C(Nc1ccccc1)N1CCOCC1,"inconclusive: 0.794 µM [inhibitor, single point]",
O=c1cc(N2CCN(c3ccc(F)cc3)CC2)[nH]c(=O)n1Cc1ccc(F)cc1,"inconclusive: 31.6 µM [inhibitor, single point]",
CCC(=O)c1c[nH]c(C(=O)N2CCOCC2)c1,"inconclusive: 39.8 µM [inhibitor, single point]",
COc1cc(/C=N/Nc2nncc3ccccc23)cc(OC)c1OC,"inconclusive: 3.55 µM [inhibitor, partial curve, poor fit]",
COc1ccc(CNC(=O)Cc2c(C)c3ccc(O)cc3oc2=O)cc1,"inconclusive: 20 µM [inhibitor, partial curve]",
Cc1ccc(/C=c2/sc3nnc(-c4ccccc4Cl)n3c2=O)o1,"inconclusive: 31.6 µM [inhibitor, single point]",
CN(C)c1ccc(C(=S)N2CCCCCC2)cc1,inactive,
CCN(CC(=O)NCc1cccs1)C(=O)C(c1ccccc1)c1ccccc1,"inconclusive: 3.16 µM [inhibitor, single point]",
O=[N+]([O-])c1cc(CN2CCOCC2)c2cccnc2c1O,"inconclusive: 15.8 µM [inhibitor, partial curve]",
CC(C)n1cc(/C=C2/SC(=O)N(CC(=O)N3CCCC3)C2=O)c2ccccc21,"inconclusive: 1.78 µM [inhibitor, full curve]",

# Among those listed so far, these contain an aryl thioether with sulfur outside any ring:
SMILES,Potency,"activity change, negative = inhibition"
COc1ccc(-c2cnc(SCC(=O)Nc3ccc4c(c3)OCO4)n2Cc2ccco2)cc1,,inconclusive: -87.5% [inhibitor] [at 0.501 µM]
CCCn1c(SCC(=O)N(C)C2CCS(=O)(=O)C2)nc2sc3c(c2c1=O)CCC3 (stereo not given),inactive,

# For convenience, 2 of the compounds above:
SMILES,Potency,"activity change, negative = inhibition"
COc1ccc(CCNc2nc(C)c(C(C)=O)s2)cc1OC,"inconclusive: 39.8 µM [inhibitor, single point]",
CC1=C(C)/C(=N\OS(=O)(=O)c2ccccc2)C=CC1=O,"inconclusive: 1.78 µM [inhibitor, partial curve]",

# Next part:

SMILES,Potency,"activity change, negative = inhibition"
CCCCC(NC(=O)Cc1c(C)c2cc3c4c(oc3cc2oc1=O)CCCC4)C(=O)O (stereo not given),"inconclusive: 39.8 µM [inhibitor, single point]",
CCn1c(CNC(=O)c2cccnc2)cc2ccccc21,inactive,
Cc1ccc(C)c(S(=O)(=O)NCC(c2ccc(N(C)C)cc2)N2CCOCC2)c1 (stereo not given),inactive,
COc1ccc(-c2nc3ccccn3c2NC2CCCCC2)cc1SC1CCCCC1,"inconclusive: 35.5 µM [inhibitor, single point]",
CC(C)n1cc(/C=N/Nc2ccc(C(=O)O)cc2)c2ccccc21,"inconclusive: 35.5 µM [inhibitor, single point]",
CCC(=O)OC1CC(C)N(C(=O)c2ccccc2)c2ccc(C)cc21 (stereo not given),inactive,
CC(C)c1ccc(S(=O)(=O)N2CCC3(CC2)OCCO3)cc1,"inconclusive: 0.631 µM [inhibitor, full curve]",
COc1ccc(S(=O)(=O)N2CCOC2CNC(=O)C(=O)NCC(C)C)cc1OC (stereo not given),"inconclusive: 0.282 µM [inhibitor, full curve]",
CC(C)C[C@H]1CN=C(Nc2ccccc2)N1CCCCc1ccccc1,inactive,
O=C(/C=C/c1ccc(Cl)cc1)Nc1ccc(N2CCOCC2)cc1,inactive,
Cc1nnc2c3ccccc3c(-c3cccc4ccccc34)nn12,"inconclusive: 1.58 µM [inhibitor, full curve, poor fit]",
Cc1cccc(NC(=O)c2nc[nH]c2C(=O)N2CCN(C(=O)OC(C)(C)C)CC2)c1,"inconclusive: 39.8 µM [inhibitor, single point]",
CC(=O)Nc1cccc(NC(=O)CSc2ccc(-c3ccco3)nn2)c1,"inconclusive: 0.0708 µM [inhibitor, full curve, poor fit]",
CN(C)CC(O)COc1cccc(OCC(O)CN(C)C)c1 (stereo not given),"inconclusive: 39.8 µM [inhibitor, single point]",
COc1ccc(CNC(=O)C2CCN(S(=O)(=O)c3cccc4nsnc34)CC2)cc1,"inconclusive: 10 µM [inhibitor, partial curve]",
Cc1ccc(N2CC(C(=O)Nc3nnc(SCCN4CCOCC4)s3)CC2=O)cc1C (stereo not given),"inconclusive: 3.16 µM [inhibitor, full curve, poor fit]",
N#C/C(=C\c1ccc(O)c(O)c1)C(=O)NCCCCc1ccccc1,"inconclusive: 28.2 µM [inhibitor, partial curve]",
CCOC(=O)c1c(-c2ccc(C)cc2)csc1NC(=O)c1cc(=O)c2cc(C)ccc2o1,"inconclusive: 31.6 µM [inhibitor, partial curve]",
CCn1c(SCC(=O)Nc2ccccc2C(=O)OC)nnc1-c1ccc(N)cc1,"inconclusive: 22.4 µM [inhibitor, partial curve]",
COc1cc2nc(CN(CCC(C)C)Cc3nc4cc(OC)c(OC)cc4c(=O)[nH]3)[nH]c(=O)c2cc1OC,"inconclusive: 0.141 µM [inhibitor, full curve, poor fit]",
CCOC(=O)Cc1csc(NC(=O)CSc2nnnn2-c2ccc(C)c(C)c2)n1,"inconclusive: 22.4 µM [inhibitor, partial curve]",
CC(C)C(NC(=O)/C(=C\c1ccco1)NC(=O)c1ccco1)C(=O)O (stereo not given),"inconclusive: 3.98 µM [inhibitor, single point]",

SMILES,Potency,"activity change, negative = inhibition"
O=C(CCC(=O)Nc1ccc(F)cc1)N/N=C/c1ccccc1O,inactive,
Cc1ccc(C(=O)OCC(=O)NCCNC(=O)COC(=O)c2ccc(C)o2)o1,"inconclusive: 4.47 µM [inhibitor, single point]",
COc1ccc(NC(=O)CN(C)S(=O)(=O)c2ccc3c(c2)NC(=O)CS3)cc1,"inconclusive: 0.631 µM [inhibitor, single point]",
Cc1ccc(S(=O)(=O)N/N=C/c2ccccc2O)cc1,"inconclusive: 7.08 µM [inhibitor, single point]",
O=C(NCc1ccco1)c1ccc(COc2ccccc2[N+](=O)[O-])o1,"inconclusive: 1 µM [inhibitor, full curve, poor fit]",
COc1ccccc1S(=O)(=O)NCc1ccc(C(=O)NC2CCC(O)CC2)cc1 (stereo not given),"inconclusive: 39.8 µM [inhibitor, single point]",
Cc1c(NC(=S)N/C(=N/S(=O)(=O)c2ccc(Cl)cc2)c2ccccc2)c(=O)n(-c2ccccc2)n1C,inactive,
CCOc1ccccc1CN(Cc1ccco1)S(=O)(=O)c1ccc(-n2cnnn2)c(OC)c1,"inconclusive: 17.8 µM [inhibitor, partial curve]",
CCC(=O)Nc1ccc2c(c1)C(=O)c1ccccc1C2=O,"inconclusive: 39.8 µM [inhibitor, single point]",
CC(=O)c1[nH]c(C)c(C(=O)N2CCCC(Nc3ccc(C(C)C)cc3)C2)c1C (stereo not given),"inconclusive: 5.01 µM [inhibitor, single point]",
CCCCn1c(SCC(=O)N2c3ccccc3CCc3ccccc32)nc2c1c(=O)n(C)c(=O)n2C,"inconclusive: 5.01 µM [inhibitor, single point]",
COCCn1c(=O)cnc2cnc(Nc3cccc(OC)c3)nc21,inactive,
COc1ccccc1C(=O)Oc1cc(N)n(S(=O)(=O)c2ccc(C)cc2)n1,"inconclusive: 39.8 µM [inhibitor, single point]",
Cc1ccc(-c2n[nH]c(=S)n2/N=C/c2cccn2C)cc1,inactive,
CCOC(=O)c1c(NC(=O)C2=C(C)NC(=S)NC2c2ccc(C)cc2)sc(C)c1C (stereo not given),"inconclusive: 17.8 µM [inhibitor, partial curve, poor fit]",
O=C(NC(=S)Nc1cccc(Cl)c1Cl)C1CC1,"inconclusive: 3.98 µM [inhibitor, full curve, poor fit]",
CNC(=S)N/N=C/c1cc(Br)cc(Br)c1O,"inconclusive: 25.1 µM [inhibitor, partial curve]",
Cc1nc(-c2cccc(S(=O)(=O)N3CC(C)CC(C)C3)c2)cs1 (stereo not given),inactive,
Cc1c(Cl)cccc1NC(=S)N(CCCN1CCOCC1)Cc1cccs1,inactive,
Cc1ccc(CNC(=O)C2CCCN2C(=O)Nc2ccc(C)cc2)cc1 (stereo not given),"inconclusive: 39.8 µM [inhibitor, single point]",
Brc1ccc(N/N=C(/N=Nc2nn[nH]n2)c2ccccc2)cc1,"inconclusive: 31.6 µM [inhibitor, single point]",
